Laboratory results from PubChem BioAssay AID1671190 (National Center for Advancing Translational Sciences (NCATS), 2021).
Screen size: about 580,000 compounds; about 6,100 (1.1%) were called active. The shares of active, inactive and inconclusive entries below differ from those in the screen. Calls come from the whole dose curve; as a rule, active = well fitted inhibition curve with a large enough effect; inconclusive = small, poorly fitted or top-dose-only effect, or another doubt; inactive = no such curve, though single readings can be large or run the other way. Potencies beside an inconclusive call are fits to weak or partial responses and may not hold up.

By UniProt entry, the sequences of proteins in these tests, tags left out.
UniProt P18054, whole entry, looked up: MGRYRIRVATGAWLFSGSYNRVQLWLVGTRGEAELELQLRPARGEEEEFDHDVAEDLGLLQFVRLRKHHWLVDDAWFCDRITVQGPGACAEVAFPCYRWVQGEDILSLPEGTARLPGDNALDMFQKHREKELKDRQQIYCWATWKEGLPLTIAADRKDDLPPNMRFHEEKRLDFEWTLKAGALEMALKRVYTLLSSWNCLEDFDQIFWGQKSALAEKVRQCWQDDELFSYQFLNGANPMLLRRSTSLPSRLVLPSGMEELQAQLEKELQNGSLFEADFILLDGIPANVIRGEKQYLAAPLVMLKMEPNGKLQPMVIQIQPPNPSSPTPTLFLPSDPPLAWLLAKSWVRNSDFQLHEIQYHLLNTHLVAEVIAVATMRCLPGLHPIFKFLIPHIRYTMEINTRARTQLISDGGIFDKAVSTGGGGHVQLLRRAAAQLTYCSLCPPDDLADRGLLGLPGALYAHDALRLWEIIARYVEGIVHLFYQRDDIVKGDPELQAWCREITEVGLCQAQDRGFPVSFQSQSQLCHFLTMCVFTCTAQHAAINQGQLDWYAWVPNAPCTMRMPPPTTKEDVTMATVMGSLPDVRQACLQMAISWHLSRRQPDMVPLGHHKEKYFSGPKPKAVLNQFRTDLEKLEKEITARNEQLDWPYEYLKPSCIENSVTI

These compounds were tested against Polyunsaturated fatty acid lipoxygenase ALOX12 (Homo sapiens) (UniProt P18054) (assay: Primary qHTS assay for inhibitors of human arachidonate 12S-lipoxygenase (ALOX12): Round 2). Conditions: purified 12hLO, xylenol orange hydroperoxide absorbance; activity change, negative = inhibition: at 108 µM (top of the series) unless noted.
How it was run: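 Purified human 12hLO (150 nM final) in 25 mM Hepes, 0.01% Triton X-100, pH 7.0 was preincubated 15 min at room temperature with compound. Then 40 uM arachidonic acid was added, 30 min. Hydroperoxide was read by Fe-XO absorbance ratio 573/405 nm.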
% is set by controls: 0 for no effect and ±100 for the full control effect; potency is the fitted concentration of half-maximal effect.

SMILES	activity change, negative = inhibition	Potency
Cc1ccc(CNC(=O)[C@H](Cc2ccccc2)NC(=O)c2ccco2)n1C	inactive: 9.13%	–
COc1cc2nc(-c3ccccc3C)oc(=O)c2cc1OC	–	inconclusive: 1.58 µM [inhibitor, full curve, poor fit]
COc1ccccc1NC(=O)CSc1nc(N2CCOCC2)c2c(c1C#N)CC(C)(C)OC2	inactive: 5.33%	–
CCn1nnnc1SCC(=O)c1ccc(NC(C)=O)cc1	–	inconclusive: 126 µM [inhibitor, partial curve, poor fit]
COC(=O)[C@@]12CCCCN1[C@H](c1ccc(-c3ccc(Cl)c(Cl)c3)cc1)[C@H]1C(=O)N(C)C(=O)[C@H]12	–	inconclusive: 44.7 µM [inhibitor, partial curve, poor fit]
COC(=O)c1cnc(Nc2nc(C(N)COCc3ccccc3)cs2)nc1C(F)(F)F (centres undefined)	inactive: 4.62%	–
CCOC(=O)c1ccc(-c2ccccc2)cc1	inactive: 6.84%	–
CCn1c(CC(=O)Nc2ccccc2)nnc1SCC(=O)NC1=NCCS1	–	inconclusive: 35.5 µM [inhibitor, full curve, poor fit]
CC(Sc1ccc([N+](=O)[O-])cn1)C(=O)Nc1nccs1 (centres undefined)	–	inconclusive: 35.5 µM [inhibitor, partial curve, poor fit]
O=C(NCC(c1ccccc1)c1c[nH]c2ccccc12)c1cc[n+]([O-])cc1 (centres undefined)	–	inconclusive: 112 µM [inhibitor, single point]
C=CCNc1ncnc2c1[nH]c1ccc(Cl)cc12	inactive: -5.29%	–
COc1cc2c(cc1OC)CN(C(=O)c1nn(Cc3ccccc3)c(=O)c3ccccc13)CC2	–	inconclusive: 126 µM [inhibitor, single point]
Cc1cc(N2CCN(C(C(=O)O)c3c[nH]c4ccc(Cl)cc34)CC2)nc2ccccc12 (centres undefined)	–	inconclusive: 0.251 µM [inhibitor, full curve]
O=S(=O)(c1ccc2ccccc2c1)N1CCN(c2ccc(O)cc2)CC1	–	inconclusive: 44.7 µM [inhibitor, partial curve, poor fit]
CN(C)/C=C1\N=C(c2ccc3c(c2)OCO3)OC1=O	–	inconclusive: 50.1 µM [inhibitor, partial curve]
O=C1CC2CCCC(C1)N2C(=O)c1ccc(C(F)(F)F)cc1	–	inactive
Cc1ccc2c(c1)N(CC(=O)N(Cc1ccc3c(c1)OCO3)CC1CCCO1)C(=O)C(C)O2 (centres undefined)	–	inconclusive: 39.8 µM [inhibitor, partial curve, poor fit]
CCN=C(NCC)SC1CC(=O)N(c2cccc(OC)c2)C1=O (centres undefined)	–	inconclusive: 126 µM [inhibitor, partial curve, poor fit]
Cc1c(C(O)CN2CCN(Cc3ccc4c(c3)OCO4)CC2)c2ccccc2n1C (centres undefined)	–	active: 44.7 µM
CC(C(=O)NCC(=O)Nc1ccc(F)c(F)c1F)N1CCN(c2ccc(O)cc2)CC1 (centres undefined)	–	inconclusive: 25.1 µM [inhibitor, single point]
CCN(CC)C(=N)/C(C#N)=N/Nc1ccccc1	–	inconclusive: 141 µM [inhibitor, partial curve, poor fit]
O=C(Nc1ccc2oc(-c3cccc(Br)c3)nc2c1)c1cccs1	–	inconclusive: 70.8 µM [inhibitor, partial curve, poor fit]

One compound at a time, from the list above. Values in the order: activity change, negative = inhibition | Potency
O=C1CC2CCCC(C1)N2C(=O)c1ccc(C(F)(F)F)cc1 reads – | inactive
COc1cc2nc(-c3ccccc3C)oc(=O)c2cc1OC reads – | inconclusive: 1.58 µM [inhibitor, full curve, poor fit]
O=C(NCC(c1ccccc1)c1c[nH]c2ccccc12)c1cc[n+]([O-])cc1 (centres undefined) reads – | inconclusive: 112 µM [inhibitor, single point]
CCn1c(CC(=O)Nc2ccccc2)nnc1SCC(=O)NC1=NCCS1 reads – | inconclusive: 35.5 µM [inhibitor, full curve, poor fit]

(continued)

SMILES	activity change, negative = inhibition	Potency
COc1ccccc1Cc1c(-c2ccc(C)cc2)nc2c(C)cc(Br)cn12	–	inconclusive: 79.4 µM [inhibitor, single point]
CC(OC(=O)CCc1ccccc1)C(=O)Nc1ncc(Cl)cc1Cl (centres undefined)	–	inconclusive: 79.4 µM [inhibitor, single point]
S=c1cn[nH]c2ccccc12	–	active: 39.8 µM
Cc1ccnc(NC(=O)C2CCN(S(=O)(=O)c3c(C)c(C)cc(C)c3C)CC2)c1	–	inconclusive: 31.6 µM [inhibitor, partial curve, poor fit]
O=C(O)CC/C(=N/NC(=O)c1cn(-c2ccccc2)nc1-c1ccccc1)C(=O)O	inactive: 0.127%	–
Cc1cccc(C)c1NS(=O)(=O)c1c(C)[nH]c(=O)[nH]c1=O	–	inconclusive: 79.4 µM [inhibitor, single point]
N#Cc1c(-c2ccco2)cc(-c2cccnc2)nc1N	–	inconclusive: 39.8 µM [inhibitor, partial curve]
CC(C)(C)c1ccc(OCC(=O)N(Cc2nc3ccccc3c(=O)[nH]2)CC2CCCO2)cc1 (centres undefined)	inactive: 5.96%	–
COc1ccc(C(C)=O)cc1CC1(C)C(=O)Nc2ccc(-c3cccc(C(F)(F)F)c3)cc21 (centres undefined)	–	inconclusive: 56.2 µM [inhibitor, partial curve, poor fit]
Cc1nc2ccc(C(=O)N3CC(=O)N(c4ccc(Cl)cc4)CC3C)cc2[nH]1 (centres undefined)	inactive: 26.3%	–
Nc1cccc(-c2cn(-c3cc4cc(C#CC5(O)CCCCC5)ccc4oc3=O)nn2)c1	–	inconclusive: 50.1 µM [inhibitor, partial curve, poor fit]
CNC(=O)N1C[C@@H](CN(C)C)[C@H](NS(=O)(=O)c2cc(F)ccc2C)C1	–	inconclusive: 35.5 µM [inhibitor, partial curve]
CCn1c(CNc2cccc(C(F)(F)F)c2)n[nH]c1=S	–	inconclusive: 44.7 µM [inhibitor, partial curve, poor fit]
Cn1ccc2cc(S(=O)(=O)N3CCC(C(=O)N4CCOCC4)CC3)ccc21	–	inconclusive: 89.1 µM [inhibitor, single point]
Cc1ccc(-c2nn3c(-c4ccco4)nnc3c3ccccc23)cc1S(=O)(=O)NCC1CCCO1 (centres undefined)	inactive: -10.8%	–
NC(=O)CSc1nc2scc(-c3ccco3)c2c(=O)n1-c1ccccc1	–	inconclusive: 39.8 µM [inhibitor, partial curve, poor fit]
COCCCNC(=O)C[C@H]1C[C@H](C(=O)N2CCCCC2)[C@@]2(CCc3ccccc3)c3[nH]c4cc(-c5ccco5)ccc4c3CCN2C1=O	–	inconclusive: 112 µM [inhibitor, partial curve, poor fit]
CCN1CCN(Cc2ccc(NC(=O)c3cc(NC(=O)c4cncc(-c5cccs5)c4)cc(OC)c3)cc2C(F)(F)F)CC1	–	inconclusive: 100 µM [inhibitor, single point]
Cc1cccc(C(=O)N2CCCCCCNC(=O)CC2c2ccccc2)c1 (centres undefined)	inactive: 30.1%	–
CC(=O)Nc1ccc(NC(=O)c2cccc(CN3CCCC(C#N)C3)c2)cc1 (centres undefined)	–	inconclusive: 5.62 µM [inhibitor, full curve, poor fit]
COc1ccc(-c2noc(CC3CCN(C(=O)Cc4ccc(C)cc4)CC3)n2)cc1	–	inconclusive: 70.8 µM [inhibitor, partial curve]
Cc1cc(C)cc(NS(=O)(=O)c2ccc(-c3cc(C)no3)cc2)c1	inconclusive: -38.5% [inhibitor]	–

Look-ups from the entries so far:
For activity change, negative = inhibition, Cc1ccc(-c2nn3c(-c4ccco4)nnc3c3ccccc23)cc1S(=O)(=O)NCC1CCCO1 (centres undefined) has inactive: -10.8%
For Potency, CC(=O)Nc1ccc(NC(=O)c2cccc(CN3CCCC(C#N)C3)c2)cc1 (centres undefined) has inconclusive: 5.62 µM [inhibitor, full curve, poor fit]

Next entries

SMILES	activity change, negative = inhibition	Potency
O=C(O)CCc1nn2cc(-c3ccccc3)nc2[nH]c1=O	–	inconclusive: 28.2 µM [inhibitor, single point]
CC(c1ccc(F)cc1)n1c(-c2cnccn2)n[nH]c1=S (centres undefined)	–	inconclusive: 35.5 µM [inhibitor, single point]
O=C(Nc1ccc(F)c(F)c1)c1cc(S(=O)(=O)C2CCS(=O)(=O)C2)ccc1F (centres undefined)	–	inconclusive: 56.2 µM [inhibitor, single point]
Cc1cccc(Cl)c1NC(=O)N1CCC2(CCCN(C(C)C)C2=O)C1 (centres undefined)	inactive: 50.7%	–
O=S1(=O)CC2N=C(N(Cc3ccc(F)cc3Cl)c3ccccc3F)SC2C1 (centres undefined)	–	inconclusive: 126 µM [inhibitor, partial curve, poor fit]
C=CCN1C(=O)COc2ccc(NC(=O)c3cc(=O)c4cc(C)cc(C)c4o3)cc21	inactive: 27.9%	–
Cc1cc(C(=O)COC(=O)c2ccc(O)cc2O)c(C)n1C(C)C	–	inconclusive: 79.4 µM [inhibitor, partial curve, poor fit]
Cc1ccccc1-c1ccc2c(c1)[C@@H]1C[C@H]3[C@@H](CN1CC2)[C@H](C)OC(C1CCCCC1)N3C (some centres undefined)	inactive: -2.65%	–
COC(=O)CSc1sc(=O)sc1SC	–	inconclusive: 44.7 µM [inhibitor, partial curve, poor fit]
CC1CCCC(NC(=O)c2ccc(COc3ccccc3)o2)C1C (centres undefined)	–	inconclusive: 112 µM [inhibitor, partial curve, poor fit]
O=C(CN1CCN(S(=O)(=O)c2ccc(F)cc2)CC1)c1ccc(O)c(O)c1	–	inconclusive: 28.2 µM [inhibitor, full curve, poor fit]
CCN(CC)C(=O)c1cc(-c2ccccc2OC)on1	inactive: -25.3%	–
O=C(COC(=O)C12CC3CC(CC(C3)C1)C2)Nc1ncc(Cl)cc1Cl	–	inconclusive: 11.2 µM [inhibitor, full curve]
CCCCCCn1nc(C(=O)OCC(=O)NCc2ccccc2F)c2ccccc2c1=O	–	inconclusive: 50.1 µM [inhibitor, partial curve, poor fit]
CC1CCCN(CC2CCCCN2)C1 (centres undefined)	–	inconclusive: 0.224 µM [inhibitor, full curve, poor fit]
O=C(OCc1ccccc1)N1Cc2ccnnc2CC1c1ccccc1-c1ccc(C(F)(F)F)cc1 (centres undefined)	–	inconclusive: 35.5 µM [inhibitor, partial curve]
COc1ccnc(-c2nnc3ccc(N4CCN(C(=O)c5ccco5)CC4)nn23)c1	inactive: -1.12% [at 176 µM]	–
Brc1ccccc1CNCc1ccc(Cn2cncn2)cc1	–	inconclusive: 141 µM [inhibitor, partial curve, poor fit]
COc1ccc(-c2nc3cc(NC(=O)COc4ccc(F)cc4)ccc3o2)cc1	–	inconclusive: 100 µM [inhibitor, partial curve, poor fit]
N#Cc1cn(C2CC2)c(=O)n(Cc2coc(-c3cccc(Cl)c3)n2)c1=O	–	inconclusive: 44.7 µM [inhibitor, partial curve, poor fit]
